Results as given in the supplement of paper PMC8497498.
± gives the standard deviation of the averaged measurements. This is one part of the list. The data scatter; read single values as rough.

Assays:
Settings in all cases: 10 µM
[1] = tested on: Plasmodium vivax liver stage (primary human hepatocyte culture); experiment: hypnozoite quantity inhibition (% inhibition); higher = more active against hypnozoites
[2] = tested on: Plasmodium vivax liver stage (primary human hepatocyte culture); experiment: schizont net growth area inhibition (% inhibition); higher = more active against liver schizonts
[3] = tested on: primary human hepatocytes; experiment: hepatic nuclei reduction relative to DMSO (100 - % of negative control); higher = more toxic to hepatocytes
[4] = assay mode: Prophylactic (treated before or shortly after infection), fixed day 6 post-infection
[5] = assay mode: Radical Cure (treated from day 5 post-infection for 3 days), fixed day 8 post-infection

Row | Compound | hypnozoite quantity inhibition [1, 4] | hypnozoite quantity inhibition [1, 5] | schizont net growth area inhibition [2, 4] | schizont net growth area inhibition [2, 5] | hepatic nuclei reduction [3, 4] [%] | hepatic nuclei reduction [3, 5] [%]
1 | CCOc1ccc(CN2CCN(CC(O)COc3ccc(OCC(O)CN4CCN(Cc5ccc(OCC)cc5)CC4)cc3)CC2)cc1 (stereo not drawn) | -13.9 | 22.1 | -11.2 | 48.8 | 0 | 3
2 | COc1ccc(-c2nc(-c3cccc(NC(=O)Cc4ccc(F)cc4)c3)no2)cc1OC | -38 | -2 | 0.3 | -5.4 | -7 | -7
3 | CC(C)n1ncc2c(C(=O)NCC(c3cccs3)N3CCOCC3)cc(-c3ccccc3)nc21 (stereo not drawn) | -7 | 1 | 13 | -59.3 | -1 | -3
4 | CC(=O)N[C@@H](C(=O)O)C(C)(C)S | -55 | 31 | -43.5 | 64 | -14 | 0
5 | Cc1nc(-c2ccccn2)nc(NCCc2ccc(S(C)(=O)=O)cc2)c1Cl | 8 | 26 | -44.3 | 59.9 | -9 | -5
6 | COc1cc2cc(C(=O)Nc3ccccc3)c(N)nc2cc1OC | -13.2 | 47.3 | 57.9 | 45.7 | -12 | 1
7 | N#Cc1nc(-c2ccccc2)oc1S(=O)(=O)c1ccc(Cl)cc1 | -21 | -41 | 38.6 | -42.9 | 5 | 6
8 | COc1ccc(-c2cncc3ccc(C(=O)NCCCn4ccnc4)nc23)cc1 | 52 | -44 | 94.6 | 107 | -1 | -10
9 | CCN(CC)CCNc1ccnc2cc(Cl)ccc12 | -36.2 | 40.5 | 32.6 | -18.4 | -4 | 4
10 | CCCCCCC[C@@H]1CN[C@H](C(=O)NC(C(C)Cl)C2O[C@H](SC)[C@H](O)[C@@H](O)[C@H]2O)C1 (stereo partly drawn) | -76 | 15 | -6.1 | 13.1 | 10 | -2
11 | c1ccc(CNc2nc(Nc3ccccc3)nc3ccccc23)cc1 | 21 | 17.6 | 23.8 | -6.7 | -11 | 0
12 | CCN1CCN(Cc2ccc(NC(=O)c3cc4ccc5cccnc5c4[nH]3)cc2)CC1 | 93.5 | -55.3 | 96.1 | 1 | 0 | -8
13 | CCN(CC)Cc1cc(Nc2ccnc3cc(Cl)ccc23)ccc1O | -48 | 15 | 51.4 | 41.4 | 0 | -7
14 | O=C(NC1CCN(Cc2ccccc2)CC1)c1cc2nc(-c3ccc(Cl)s3)cc(C(F)(F)F)n2n1 | -28.1 | 40.5 | -72.3 | 33.6 | -18 | -5
15 | CS(=O)(=O)N1CCC(CCn2nc(Cc3cccc4ccccc34)c3c(N)ncnc32)CC1 | 4 | -15 | 46.4 | 31.8 | -2 | -5
16 | CC1CCC2C(C)C(OC(=O)CCC(=O)O)OC3OC4(C)CCC1C32OO4 (stereo not drawn) | 41 | -17 | 61.5 | 20.2 | 10 | -2
17 | CCOC(=O)c1noc(N)c1-c1ccccc1 | -11 | 2 | -70.8 | 40.9 | -11 | -3
18 | CCn1ncc2c(NC3CCOCC3)c(CNC(=O)c3ccnn3C)c(C)nc21 | 99 | -2 | 102 | 93.7 | 13 | -2
19 | COc1ccccc1CNC(=O)CCn1c(=O)[nH]c2ccccc2c1=O | -38.5 | 17.6 | 97.7 | 9.6 | -11 | -2
20 | COc1cc(C(=O)Nc2nc3c(cc4c5c(cccc53)CC4)s2)cc(OC)c1OC | -45.9 | 35.9 | 25.9 | 66.7 | 3 | -1

A few values from above.
In schizont net growth area inhibition [2, 4], COc1cc(C(=O)Nc2nc3c(cc4c5c(cccc53)CC4)s2)cc(OC)c1OC is entered as 25.9
In schizont net growth area inhibition [2, 5], CC1CCC2C(C)C(OC(=O)CCC(=O)O)OC3OC4(C)CCC1C32OO4 (stereo not drawn) is entered as 20.2

Going on with the list:

Row | Compound | hypnozoite quantity inhibition [1, 4] | hypnozoite quantity inhibition [1, 5] | schizont net growth area inhibition [2, 4] | schizont net growth area inhibition [2, 5] | hepatic nuclei reduction [3, 4] [%] | hepatic nuclei reduction [3, 5] [%]
21 | C=CC1CN2CCC1CC2C(O)c1ccnc2ccc(OC)cc12 (stereo not drawn) | -31 | 28 | -28.6 | 64.5 | -4 | 1
22 | COc1cc2c3cc1Oc1c(OC)c(OC)cc4c1C(Cc1ccc(O)c(c1)Oc1ccc(cc1)CC3N(C)CC2)N(C)CC4 (stereo not drawn) | -13.2 | 56.5 | -64.3 | 35.1 | -9 | 6
23 | O=C(OCc1ccccc1)N1CCC(c2cc(-c3ccncc3)c(-c3ccc(F)cc3)[nH]2)CC1 | 65 | -20 | 30.1 | -59.6 | 26 | -5
24 | COc1ccc(C(=O)Nc2nonc2-c2ccc(OC)c(OC)c2)cc1Cl | 2.5 | -6.2 | -0.4 | -9.7 | -4 | -7
25 | COc1ccccc1N=C1C(=O)c2ccccc2C(O)=C1N1CCCCC1 | 1.7 | 33.6 | 58.9 | 35 | 0 | 2
26 | c1cc(C2=NCCN2)cc(-c2cc(-c3ccc(C4=NCCN4)cc3)no2)c1 | -10 | -15 | -43.9 | -114 | 1 | -1
27 | Cc1ccc(Nc2nc(NCCO)c3ccccc3n2)cc1C | 10.7 | 18.3 | -371 | 61.1 | 1 | 10
28 | COc1cccn2c(C(=O)N3CCCCC3)c(C(F)(F)F)nc12 | 7 | -15 | 29.8 | -152 | -2 | -9
29 | CC(=O)c1sc(NC(=O)Nc2ccc(C)cc2C)nc1C | -30.3 | -7.6 | 17.4 | 16.8 | -11 | -3
30 | CC(=O)NCC1CN(c2ccc(-c3ccc(CNCc4cn[nH]n4)cc3)c(F)c2)C(=O)O1 (stereo not drawn) | 20 | -10 | 73 | 35.5 | -4 | -2
31 | Cc1cc(OCC(=O)Nc2ccc(C(C)C)cc2)n(C)c(=O)c1C#N | -93 | -38 | -37.3 | -106 | -9 | -4
32 | Oc1ccc(-c2nc(-c3ccc4oc5ccc(-c6[nH]c(-c7ccc(O)cc7)nc6-c6ccccc6)cc5c4c3)c(-c3ccccc3)[nH]2)cc1 | -23.6 | 35.9 | -38.1 | 88.8 | -4 | -1
33 | FC(F)(F)c1cc(NCCc2ccccc2)nc(-c2ccccn2)n1 | 31 | -12 | 23.1 | -24.7 | 6 | 5
34 | N#Cc1cc(NC(=O)C2c3ccccc3C(=O)N(CC(F)(F)F)C2c2cccnc2)ccc1F (stereo not drawn) | -52 | -12 | -31.2 | 28.3 | -6 | -3
35 | CC(C)(C(=O)Nc1ccc(F)cc1)n1cc(-c2ccccc2F)cn1 | 18 | 11 | 34.3 | -65.6 | -4 | -8
36 | O=C(NCc1ccco1)N1CCN(Cc2ccc(Cl)s2)CC1 | -41 | -2 | 13.8 | -115 | 4 | -4
37 | Cc1cc(NC(=O)C2c3ccccc3C(=O)N(CC(C)C)C2c2cccs2)no1 (stereo not drawn) | 2.5 | 34.6 | 58 | -36.1 | -1 | 5
38 | COc1cccc(-n2nnnc2S(=O)(=O)Cc2ccccc2)c1 | 28 | -25 | 42.3 | -49.1 | -5 | -6
39 | Cc1cc(Nc2cccc(F)c2)nc(NCc2ccccc2)n1 | -21.4 | 47.3 | -1.4 | 3.7 | -10 | -5
40 | COc1cccc(NC(=O)Cn2c(C)c(C#N)c3ccccc32)c1 | -35.5 | 40.5 | 66 | 24 | -11 | -4

Row | Compound | hypnozoite quantity inhibition [1, 4] | hypnozoite quantity inhibition [1, 5] | schizont net growth area inhibition [2, 4] | schizont net growth area inhibition [2, 5] | hepatic nuclei reduction [3, 4] [%] | hepatic nuclei reduction [3, 5] [%]
41 | Cc1cc(=O)oc2c1ccc1oc(C(=O)c3ccccc3)c(C)c12 | -7.2 | 65.6 | 41.5 | 29.1 | -1 | 7
42 | O=[N+]([O-])c1cn2c(n1)OC[C@@H](OCc1ccc(OC(F)(F)F)cc1)C2 | -76 | 16 | -69.5 | 32 | -10 | -1
43 | COCCNCC(O)Cn1c2ccc(Cl)cc2c2cc(Cl)ccc21 (stereo not drawn) | -8 | 31.3 | -35.8 | 37.8 | -9 | 11
44 | CN(C)CC1=C(CNc2ccnc3cc(Cl)ccc23)C=[C-]C1.[C-]1=CC=CC1.[Fe+2] | -37 | 18 | -1.3 | -35.2 | -1 | -1
45 | CCN(CC)c1ccc(NC(=O)c2cccs2)cc1 | -6.5 | 15.3 | 34.8 | 47.6 | -7 | 1
46 | Cc1ccccc1OCCSc1nc2ccc(NC(=O)c3cccs3)cc2s1 | -1.9 | 23.7 | 37.4 | -0.3 | -3 | -5
47 | O=C(Nc1ccc(C(F)(F)F)c(C(F)(F)F)c1)c1cc(Cl)ccc1O | 56 | -28 | 27 | -79.3 | 11 | 1
48 | Clc1ccc2c(N3CCCC3)ccnc2c1 | 4.4 | 53.7 | 12.9 | -60.7 | -1 | -1
49 | CCOC(=O)c1cnc2ccc(OC)cc2c1Nc1ccc(N2CCN(C)CC2)cc1 | 11.4 | 18.3 | -5 | 21.8 | 6 | -5
50 | CS(=O)(=O)c1ccccc1C(=O)N(Cc1ccccc1)c1ccccc1 | 13 | -18 | -31.8 | -64.9 | -3 | -11
51 | CCOC(=O)c1cn(CC)c2cc(N3CCCCC3)c(F)cc2c1=O | 49.3 | 49.6 | 80.6 | -4.1 | -11 | 10
52 | OC(CNCc1ccccc1)Cn1c2ccccc2c2ccccc21 (stereo not drawn) | 7.6 | 56.4 | 21 | 62 | 3 | 0
53 | COc1ccc2nccc(NC(=O)C3CCN(CCc4ccc(Cl)cc4)CC3)c2n1 | 44 | -4 | -10.2 | -47.6 | -6 | -12
54 | c1ccc(Oc2ccc(-c3cc(N4CCOCC4)[nH]n3)cc2)cc1 | 1 | -7 | 8.5 | -91.6 | -13 | 0
55 | COc1cc(C)c2c(Oc3cccc(C(F)(F)F)c3)c(OC)cc(NC(C)CCCN)c2n1 (stereo not drawn) | 2 | 58.7 ± 2.4 | 93 | 62 ± 43 | -23 | -5 ± 7.1
56 | CCCn1nnc(NC(=O)COc2ccc(C3CCCCC3)cc2)n1 | 28 | 22 | 53.8 | -13.4 | 10 | 10
57 | COc1ccc(CN2CCOc3ccc(C(C)(O)CN(C)C)cc3C2)cc1C (stereo not drawn) | -31 | -2 | 33 | -50.3 | 4 | 0
58 | CCCCOc1ccc(C(=O)Nc2cc(C)on2)cc1 | -19.9 | 40.5 | -65 | 41.2 | -11 | 17
